Source: PubChem BioAssay AID720710 (VTT Finland, 2013)
This is an unselected part of about 1,380 reagents tested. 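One array per condition without replicates; hydroxyurea arrays received 2 mM for 16 h plus 3 h recovery.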 Reagents against one gene are numbered here. Not all columns of the deposit are shown.

Test: 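Genes whose loss lowers DNA synthesis when an oncogene drives replication stress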 (primary screen)
System: human U-2 OS bone cancer cells, parental and a cyclin E (CCNE1) overexpressing line
Reagent: single siRNA against human genes, 1 µM siRNA in the printed spot mix
Time to read-out: 67 h
Treatment: half the arrays: hydroxyurea 2 mM for 16 h, then 3 h recovery; other arrays untreated
Detection: 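EdU click signal imaged per DAPI-stained nucleus at 67 h; each spot divided by its subgrid median, then z-scored relative to non-targeting control spots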
Direction: EdU z-score, cyclin E line, hydroxyurea: higher = more DNA synthesis than non-targeting controls

{"gene": "BCL3", "reagent": 1, "EdU z-score, cyclin E line, hydroxyurea": -3.17}
{"gene": "BCL3", "reagent": 2, "EdU z-score, cyclin E line, hydroxyurea": 1.35}
{"gene": "ZNFX1", "reagent": 1, "EdU z-score, cyclin E line, hydroxyurea": -2.17}
{"gene": "ZNFX1", "reagent": 2, "EdU z-score, cyclin E line, hydroxyurea": 1.62}
{"gene": "ZNF408", "reagent": 1, "EdU z-score, cyclin E line, hydroxyurea": -0.304}
{"gene": "ZNF408", "reagent": 2, "EdU z-score, cyclin E line, hydroxyurea": 2.71}
{"gene": "LIG3", "reagent": 1, "EdU z-score, cyclin E line, hydroxyurea": -0.611}
{"gene": "LIG3", "reagent": 2, "EdU z-score, cyclin E line, hydroxyurea": -0.204}
{"gene": "SETD5", "reagent": 1, "EdU z-score, cyclin E line, hydroxyurea": -1.3}
{"gene": "SETD5", "reagent": 2, "EdU z-score, cyclin E line, hydroxyurea": -1.09}
{"gene": "PHB1", "reagent": 1, "EdU z-score, cyclin E line, hydroxyurea": -0.508}
{"gene": "PHB1", "reagent": 2, "EdU z-score, cyclin E line, hydroxyurea": 1.62}
{"gene": "ACTL6A", "reagent": 1, "EdU z-score, cyclin E line, hydroxyurea": 0.235}
{"gene": "ACTL6A", "reagent": 2, "EdU z-score, cyclin E line, hydroxyurea": 0.366}
{"gene": "ACIN1", "reagent": 1, "EdU z-score, cyclin E line, hydroxyurea": -1.3}
{"gene": "ACIN1", "reagent": 2, "EdU z-score, cyclin E line, hydroxyurea": 1.15}
{"gene": "H2AX", "reagent": 1, "EdU z-score, cyclin E line, hydroxyurea": 0.654}
{"gene": "H2AX", "reagent": 2, "EdU z-score, cyclin E line, hydroxyurea": 2.04}
{"gene": "RRM2", "reagent": 1, "EdU z-score, cyclin E line, hydroxyurea": 0.0824}
{"gene": "RRM2", "reagent": 2, "EdU z-score, cyclin E line, hydroxyurea": 0.683}
{"gene": "RNF123", "reagent": 1, "EdU z-score, cyclin E line, hydroxyurea": -0.977}
{"gene": "RNF123", "reagent": 2, "EdU z-score, cyclin E line, hydroxyurea": 0.205}
{"gene": "FAAP100", "reagent": 1, "EdU z-score, cyclin E line, hydroxyurea": -0.167}
{"gene": "FAAP100", "reagent": 2, "EdU z-score, cyclin E line, hydroxyurea": 1.77}
{"gene": "CHAF1B", "reagent": 1, "EdU z-score, cyclin E line, hydroxyurea": -0.763}
{"gene": "CHAF1B", "reagent": 2, "EdU z-score, cyclin E line, hydroxyurea": 0.574}
{"gene": "ALKBH3", "reagent": 1, "EdU z-score, cyclin E line, hydroxyurea": 0.116}
{"gene": "ALKBH3", "reagent": 2, "EdU z-score, cyclin E line, hydroxyurea": 0.634}
{"gene": "SUV39H1", "reagent": 1, "EdU z-score, cyclin E line, hydroxyurea": -0.851}
{"gene": "SUV39H1", "reagent": 2, "EdU z-score, cyclin E line, hydroxyurea": 0.111}
{"gene": "MCM2", "reagent": 1, "EdU z-score, cyclin E line, hydroxyurea": -0.783}
{"gene": "MCM2", "reagent": 2, "EdU z-score, cyclin E line, hydroxyurea": -0.44}
{"gene": "LIG1", "reagent": 1, "EdU z-score, cyclin E line, hydroxyurea": -0.245}
{"gene": "LIG1", "reagent": 2, "EdU z-score, cyclin E line, hydroxyurea": 1.24}
{"gene": "XRCC4", "reagent": 1, "EdU z-score, cyclin E line, hydroxyurea": 0.145}
{"gene": "XRCC4", "reagent": 2, "EdU z-score, cyclin E line, hydroxyurea": 0.87}
{"gene": "GMNN", "reagent": 1, "EdU z-score, cyclin E line, hydroxyurea": -1.13}
{"gene": "GMNN", "reagent": 2, "EdU z-score, cyclin E line, hydroxyurea": -1.04}
{"gene": "RBBP4", "reagent": 1, "EdU z-score, cyclin E line, hydroxyurea": -0.325}
{"gene": "RBBP4", "reagent": 2, "EdU z-score, cyclin E line, hydroxyurea": 0.386}

An excerpt taken from the entries so far, as a working copy:
{"gene": "ZNF408", "reagent": 1, "EdU z-score, cyclin E line, hydroxyurea": -0.304}
{"gene": "ZNF408", "reagent": 2, "EdU z-score, cyclin E line, hydroxyurea": 2.71}
{"gene": "LIG3", "reagent": 1, "EdU z-score, cyclin E line, hydroxyurea": -0.611}
{"gene": "LIG3", "reagent": 2, "EdU z-score, cyclin E line, hydroxyurea": -0.204}
{"gene": "SETD5", "reagent": 1, "EdU z-score, cyclin E line, hydroxyurea": -1.3}
